Measured values from PubChem BioAssay AID493014 (National Center for Advancing Translational Sciences (NCATS), 2011).
Among all 340,000 compounds or so, about 170 (0.05%) were called active. The shares of active, inactive and inconclusive entries below differ from those in the screen. Calls follow the shape of the dose curve; as a rule, active = well fitted inhibition curve with a large enough effect in the signal ratio, with a control signal flat (not every such curve was filed as active); inconclusive = small, poorly fitted or top-dose-only effect, or effect the other way, or a change in a side signal; inactive = flat fitted curve, though single readings scatter; the % refers to the signal ratio. Potencies beside an inconclusive call are fits to weak or partial responses and may not hold up.

assay: qHTS Assay to Find Inhibitors of Chronic Active B-Cell Receptor Signaling; conditions: ABC-DLBCL IkBa-CBG/CBR reporter, luminescence ratio (green luciferase fused to IkBa over red control in TMD8 lymphoma cells), 4 h; activity change, negative = inhibition: at 46.1 µM (top of the series) unless noted;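 as to activity change, negative = inhibition: plate controls were basal doxycycline-induced cells for no effect and cells given 10 µM MG132 for full effect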
Method in brief: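 Concentration-response series (up to 46 uM) were applied to TMD8 dual-reporter cells for 4 h at 37C with doxycycline. Green/red ratio, after filter-overlap correction, defined %Activity; red signal alone was normalised to basal cells and zero luminescence.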
Potency is read from the fitted curve at half-maximal effect.

Row | Compound | activity change, negative = inhibition | Potency
1 | Cc1ccc(N2CCCC2=O)cc1S(=O)(=O)N1CCOCC1 | inconclusive: 7.01% | –
2 | Cn1c(=S)c2[nH]c(SCCN3CCCC3)nc2n(C)c1=O | – | active: 11.2 µM
3 | O=C(Nc1ccccc1N1CCCCC1)c1ncoc1-c1ccc(F)cc1 | inconclusive: 3.41% | –
4 | O=C(Nc1ccc(Cl)cc1)/C(=C/c1cccc(O)c1)c1nc2ccccc2s1 | – | inconclusive: 10.3 µM [falling, partial curve]
5 | CCc1c(O)nc(SCC(=O)Nc2nc3ccccc3s2)n(-c2ccc(C)cc2)c1=O | – | inconclusive: 3.98 µM [falling, partial curve, poor fit]
6 | Cc1cc(C)n(-c2nnc(NC34CC5CC(CC(C5)C3)C4)nn2)n1 | inactive: -14.5% | –
7 | COC(=O)c1cn(C(C)C(=O)NCc2ccco2)c2ccccc12 (stereo unspecified) | inconclusive: 11.7% | –
8 | CCOC(=O)c1cc(-c2ccc(OC)cc2)nc2c1c(C)nn2CCC#N | inconclusive: 18.2% | –
9 | C/C(=N\NC(=O)c1nn(C)cc1Br)c1cccc(NC(=O)C(C)(C)C)c1 | – | inconclusive: 35.5 µM [falling, single point]
10 | O=C(C/C=N/OCc1c(Cl)cccc1Cl)c1ccccc1 | – | inconclusive: 8.91 µM [rising, partial curve, poor fit]
11 | COc1ccc(Nc2nc(C)nc3c2nnn3Cc2ccccc2)cc1OC | inactive: 25.7% | –
12 | CC(=O)N(C)C1(c2nnnn2CCOC(=O)Nc2ccc(Cl)cc2)CCCCC1 | inconclusive: 5.31% | –
13 | O=CN1Cc2ccccc2-c2ccccc2C1 | inactive: 0.273% | –
14 | CCC(=O)NNC(=O)CSc1nnc(-c2ccccc2)c(-c2ccccc2)n1 | inactive: 0.595% | –
15 | CC(Sc1ccccc1)C(=O)N1CCN(S(=O)(=O)c2cccc(Br)c2)CC1 (stereo unspecified) | inconclusive: 6.17% | –
16 | Cc1ccc(NC(=O)NNC(=O)c2cccs2)cc1 | – | inconclusive: 18.4 µM [falling, partial curve]
17 | O=C(Nc1cccc(NC(=O)c2nccc3ccccc23)c1)c1ccco1 | – | inconclusive: 2.82 µM [falling, partial curve, poor fit]
18 | COCCN(C(=O)CCCC(=O)Nc1ccccn1)C(C(=O)NC1CCCCC1)c1ccc(C)cc1 (stereo unspecified) | inactive: -0.779% | –
19 | NS(=O)(=O)c1ccc(CCNc2ncnc3c2c(-c2ccccc2)cn3-c2ccc(F)cc2)cc1 | inconclusive: -10% | –
20 | CSc1nnc(-c2cccc(C)c2)n1N | inconclusive: 3.14% | –
21 | COc1cc(-c2nnc(-c3ccc(S(=O)(=O)c4ccccc4)cc3)o2)cc(OC)c1OC | inactive: 0.457% | –
22 | O=C(O)c1ccc2nc(-c3ccccc3)c(-c3ccccc3)nc2c1 | – | inconclusive: 18.4 µM [falling, partial curve]
23 | O=C(CCN1C(=O)/C(=C/c2ccc3c(c2)OCO3)SC1=S)Nc1ccc(C(=O)O)cc1 | – | inconclusive: 11.2 µM [falling, partial curve, poor fit]
24 | O=C(CSc1ccc2ccccc2n1)Nc1ccc(N2CCOCC2)cc1 | inconclusive: -1.5% | –
25 | O=[N+]([O-])c1cc(Cl)ccc1Nc1ccccc1 | inconclusive: 4.05% | –
26 | Cc1nnc(NC(=O)c2ccc(S(=O)(=O)N3CC(C)CC(C)C3)cc2)o1 (stereo unspecified) | inactive: 6.23% | –

Part of the list above, as comma-separated lines:
Row,Compound,"activity change, negative = inhibition",Potency
1,Cc1ccc(N2CCCC2=O)cc1S(=O)(=O)N1CCOCC1,inconclusive: 7.01%,–
8,CCOC(=O)c1cc(-c2ccc(OC)cc2)nc2c1c(C)nn2CCC#N,inconclusive: 18.2%,–
11,COc1ccc(Nc2nc(C)nc3c2nnn3Cc2ccccc2)cc1OC,inactive: 25.7%,–
12,CC(=O)N(C)C1(c2nnnn2CCOC(=O)Nc2ccc(Cl)cc2)CCCCC1,inconclusive: 5.31%,–
14,CCC(=O)NNC(=O)CSc1nnc(-c2ccccc2)c(-c2ccccc2)n1,inactive: 0.595%,–
15,CC(Sc1ccccc1)C(=O)N1CCN(S(=O)(=O)c2cccc(Br)c2)CC1 (stereo unspecified),inconclusive: 6.17%,–
17,O=C(Nc1cccc(NC(=O)c2nccc3ccccc23)c1)c1ccco1,–,"inconclusive: 2.82 µM [falling, partial curve, poor fit]"
21,COc1cc(-c2nnc(-c3ccc(S(=O)(=O)c4ccccc4)cc3)o2)cc(OC)c1OC,inactive: 0.457%,–
24,O=C(CSc1ccc2ccccc2n1)Nc1ccc(N2CCOCC2)cc1,inconclusive: -1.5%,–

Following part.

Row | Compound | activity change, negative = inhibition | Potency
27 | O=C(NCCOc1ccccc1)C1=CC=CN2CCS(=O)(=O)N=C12 | inconclusive: -5.69% | –
28 | O=C(c1ccco1)N1CCN(C2CC(=O)N(c3ccc4c(c3)OCO4)C2=O)CC1 (stereo unspecified) | inconclusive: 7.55% | –
29 | CCOc1ccc(-n2c(N)c(-c3nc4ccccc4[nH]3)sc2=S)cc1 | – | inconclusive: 20.6 µM [falling, partial curve]
30 | Cc1ccc2oc(=O)c3cnn(CC(=O)NCCC(C)C)c3c2c1 | inactive: 0.984% | –
31 | CCOC(=O)c1[nH]c2ccc(OC)cc2c1NC(=O)c1nonc1C | inconclusive: 3.69% | –
32 | CCOC(=O)c1sc(NC(=O)CCc2ccc(OC)cc2)nc1C | – | inconclusive: 0.355 µM [falling, full curve]
33 | O=C(CSCc1ccc(Cl)cc1)Nc1ccc(Br)cc1C(=O)O | – | inconclusive: 8.91 µM [falling, partial curve, poor fit]
34 | O=S(=O)(c1ccc(F)cc1)c1nc(-c2ccco2)oc1Nc1ccccc1 | inconclusive: -16.6% | –
35 | Cc1nc2c(C(=O)O)cnn2c(C)c1Cc1ccccc1F | inactive: -2.66% | –
36 | Cn1c(NC(=O)/C=C/c2ccc(Cl)c(Cl)c2)cc(=O)n(C)c1=O | inconclusive: 6.2% | –
37 | CCOc1ccc(N(C(=O)c2snc(C(N)=O)c2N)C(C(=O)NC2CCCC2)c2ccncc2)cc1 (stereo unspecified) | inactive: -13.8% | –
38 | Fc1ccc(N/N=C2/CCSc3sccc32)c(F)c1 | inactive: 1.44% | –
39 | CC1=NNC(=O)C1CC(=O)N/N=C/C(Br)=C/c1ccccc1 (stereo unspecified) | – | inconclusive: 35.5 µM [falling, single point]
40 | NS(=O)(=O)c1ccc(-n2cccc2C=O)cc1 | inactive: 5.95% | –
41 | CC(=O)Oc1ccc(-c2csc(Nc3ccc(Cl)cn3)n2)cc1 | – | inconclusive: 10 µM [falling, partial curve]
42 | NC(=O)C1CCCN(C(=O)CN2C(=O)NC(c3ccccc3)(c3ccccc3)C2=O)C1 (stereo unspecified) | inactive: -7.76% | –
43 | COc1ccc(OC)c(-c2csc(NC(=O)COC(=O)c3ccc(NC(=O)CC#N)cc3)n2)c1 | inactive: 4.92% | –
44 | CCOc1ccc(NC(=O)Cn2nc(C(N)=O)c3ccccc3c2=O)cc1S(=O)(=O)N1CCCC1 | inconclusive: -2.45% | –
45 | CCCN1CCN(C(=O)c2nn(-c3ccc(OC)cc3)c(=O)c3c2c2ccccc2n3C)CC1 | inconclusive: -7.34% | –
46 | C=CCc1cccc(C=Nc2cc(Br)ccc2O)c1O | inactive: 0.0763% | –
47 | O=C1Nc2ccccc2Nc2ncccc21 | – | inconclusive: 15.8 µM [falling, single point]
48 | COc1ccc(CN2CC(=O)N(c3ccc(Cl)cc3)C2=S)cc1OC | inconclusive: -0.691% | –
49 | COc1ccc(-c2cc(=O)[nH]c3ccccc23)cc1 | – | inconclusive: 7.31 µM [falling, partial curve, poor fit]
50 | O=C(/C=C/c1ccc(OCc2c(F)cccc2Cl)cc1)N1CCOCC1 | inconclusive: -18.4% | –
51 | CCOc1cccc(C(=O)Nc2ccc3[nH]ncc3c2)c1 | – | inconclusive: 10 µM [falling, partial curve]
